In paper PMC6206164, “Fibroblast Growth Factor Binding Protein 3 (FGFBP3) impacts carbohydrate and lipid metabolism” (Scientific Reports, 2018) one finds binding data, which are given here for 1 molecule.

Experiment [1] addresses T1, Recombinant human FGF23 (human) (UniProt Q9GZV9).
T1 sequence: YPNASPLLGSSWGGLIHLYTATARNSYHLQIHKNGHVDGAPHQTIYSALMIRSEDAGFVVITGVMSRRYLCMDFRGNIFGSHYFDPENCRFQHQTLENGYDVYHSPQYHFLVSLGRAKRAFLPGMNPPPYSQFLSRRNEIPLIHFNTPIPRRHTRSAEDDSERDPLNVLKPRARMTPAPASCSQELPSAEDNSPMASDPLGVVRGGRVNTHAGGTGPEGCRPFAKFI
As to the kind of experiment: ELISA; direct ELISA; FGF coated on the plate (7.5 μg/ml, overnight 4 °C); MBP-tagged protein at a fixed concentration (0.7 nM), 2 h room temperature; detection with anti-MBP antibody; PBST washes; both purified.

The target of experiment [2] is T2, Recombinant FGF15 (mouse) (UniProt O35622).
T2 sequence: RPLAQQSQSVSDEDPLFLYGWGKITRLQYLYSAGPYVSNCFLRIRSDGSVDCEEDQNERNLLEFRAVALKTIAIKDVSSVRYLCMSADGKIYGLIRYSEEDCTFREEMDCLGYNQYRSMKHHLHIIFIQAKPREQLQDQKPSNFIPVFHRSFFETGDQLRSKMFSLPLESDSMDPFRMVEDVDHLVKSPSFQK
The experiment is described as above.

No constants are given. Whether binding was seen depends on the method and setting. Some results given as binding are weak or reduced against the parent protein; the word gives no strength.

B1: MBP-tagged human recombinant BP3 devoid of its signal peptide (natural protein, UniProt Q8TAT2 27-258, looked up)
chain: RREKGAASNVAEPVPGPTGGSSGRFLSPEQHACSWQLLLPAPEAAAGSELALRCQSPDGARHQCAYRGHPERCAAYAARRAHFWKQVLGGLRKKRRPCHDPAPLQARLCAGKKGHGAELRLVPRASPPARPTVAGFAGESKPRARNRGRTRERASGPAAGTPPPQSAPPKENPSERKTNEGKRKAALVPNEERPMGTGPDPDGLDGNAELTETYCAEKWHSLCNFFVNFWNG
notes: also called FGFBP3
For the molecule B1, the binding result in experiment [1] and in experiment [2] was “binds” each time.
